Laboratory results as given in the supplement of paper PMC6411743.
± gives the standard deviation of the averaged measurements. The list shows a part of the results.

Molecular target: T1, HSPBP1 (UniProt Q9NZL4)
T1 sequence (whole entry): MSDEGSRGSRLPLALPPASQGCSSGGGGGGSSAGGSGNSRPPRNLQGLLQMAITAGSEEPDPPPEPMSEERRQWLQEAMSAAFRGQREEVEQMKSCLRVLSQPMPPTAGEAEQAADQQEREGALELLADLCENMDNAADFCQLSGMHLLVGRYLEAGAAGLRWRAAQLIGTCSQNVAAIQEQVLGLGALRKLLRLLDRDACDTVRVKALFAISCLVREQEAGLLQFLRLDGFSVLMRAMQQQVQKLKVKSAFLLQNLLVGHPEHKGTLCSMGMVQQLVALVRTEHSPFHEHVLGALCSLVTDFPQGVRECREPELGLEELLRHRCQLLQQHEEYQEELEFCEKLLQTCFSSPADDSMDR
Test: NP40-soluble protein abundance relative to vehicle (solubility fold change) (ratio); higher = more soluble protein in presence of GTP
Experimental: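 Solubility proteome profiling in Jurkat crude lysate. Lysate was treated with Mg-GTP (0.1-10 mM) for 10 min at room temperature and 3 min at 37 °C, then solubilised with 0.8% NP40 and benzonase, followed by ultracentrifugation. Proteins were quantified by TMT10 LC-MS/MS; the value is the NP40-soluble abundance relative to the NP40-processed vehicle, from 3 independent experiments.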

Q: What does the source list for Nc1nc2c(ncn2[C@@H]2O[C@H](COP(=O)(O)OP(=O)(O)OP(=O)(O)O)[C@@H](O)[C@H]2O)c(=O)[nH]1 [guanosine triphosphate]?
A: NP40-soluble protein abundance (concentration: 0.1mM): 0.971 ± 0.024; NP40-soluble protein abundance (concentration: 0.5mM): 0.921 ± 0.055; NP40-soluble protein abundance (concentration: 1mM): 0.901 ± 0.013; NP40-soluble protein abundance (concentration: 2mM): 0.931 ± 0.031; NP40-soluble protein abundance (concentration: 4mM): 0.927 ± 0.045; NP40-soluble protein abundance (concentration: 6mM): 0.889 ± 0.047; NP40-soluble protein abundance (concentration: 8mM): 0.832 ± 0.075; NP40-soluble protein abundance (concentration: 10mM): 0.886 ± 0.04
